{"source": "patent US8318697B2", "about": "“Prophylactic and therapeutic treatment of infectious and other diseases with mono- and disaccharide-based compounds” (Corixa Corporation, priority 2000, dated 2012)", "test_system": "P. carinii", "assay": "Protection against P. carinii infection in anti-CD4 treated (immunocompromised) mice, lung impression smear score", "format": "in vivo", "conditions": "pulmonary delivery", "method": "Mice were pretreated with L3T4 anti-CD4 antibody for a minimum of 2 weeks (2 injections/week, 0.2 mg/injection) or until the peripheral CD4 count was reduced by at least about 50%.\nAn aqueous formulation was prepared containing 1 mg/ml 3-O-deacylated monophosphoryl lipid A and 108 μg/ml of the surfactant DPPC in water. The formulation was administered intratracheally via a small cannula at −24 hours and then twice a week for the remainder of the study. The concentrations administered are indicated below in Table 1. One million P. carinii were inoculated trans-tracheally at day 0. Twice-weekly treatments were continued for 7 weeks, lungs were removed and impression smears made. Slides were stained with Giemsa and silver and scored for the presence of P. carinni as follows."}
{"substance": "3-O-deacylated monophosphoryl lipid A [MPL]", "values": [{"measurement": "expression of CD11b or CD69 on spleen cells", "value": "negative expression of CD11b or CD69"}]}
